Data reported in article PMC4320627, “Transcription factor MrpC binds to promoter regions of hundreds of developmentally-regulated genes in Myxococcus xanthus”.

Assays:
[1] = molecular target: T1, His10-MrpC2 (Myxococcus xanthus) (UniProt Q1D244); test: EMSA; conditions: 2 nM 32P-labeled DNA, 25 C, 15 min, recombinant protein, protein details: N-terminal His10, label: 32P
T1 sequence (looked up, limits assumed): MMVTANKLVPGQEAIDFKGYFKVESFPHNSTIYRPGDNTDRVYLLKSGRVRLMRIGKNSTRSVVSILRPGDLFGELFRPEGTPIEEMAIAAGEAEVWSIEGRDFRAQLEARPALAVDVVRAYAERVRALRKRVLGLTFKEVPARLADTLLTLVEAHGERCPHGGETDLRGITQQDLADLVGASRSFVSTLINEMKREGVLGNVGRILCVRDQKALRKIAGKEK

His10-MrpC2 + FruA-His6 = test: EMSA; conditions: cooperative, 2 nM 32P-labeled DNA, 25 C, 15 min, recombinant protein, protein details: N-terminal His10,C-terminal His6, label: 32P, probe letters rebuilt from the primers and the genome
[2] = 1 uM protein, probe letters rebuilt from the primers and the genome

| Sequence | binding result ([1]; 1 uM protein) | binding result (His10-MrpC2 + FruA-His6) | binding result [1, 2] | also measured |
| --- | --- | --- | --- | --- |
| CATCGCGGCTGTGTTCACTACGTGTCGGAGTATGAGTGG (double strand) [MXAN_4064 oligo] | binds |  |  |  |
| GGCGAACGGGACTTTCCTTCTCCAAGGTTCGTGCCAGCGGGAATTGAAATGCCGCCGGGACAACACCTCCTGAAATGCCGGGTACTTAGCGCTACAGGCCCGCACCAGAGCCCGTTCTGTGTCCAAAACCTGAAACAGAACGTTCAAACAGTCTGATCAATTTGAACGAAACGTTCAAACCGGGGGCATGAGTGTCGGAGCAG (double strand) [mrpC upstream PCR] |  | binds |  | binding result ([1]; 0.5-1 uM protein, multiple complexes, probe letters rebuilt from the primers and the genome): binds |
| CAAGGTGATGATGTGCGTCGAGGCTATCGGCCATGTGCGGGAGCGTCAATGTTCGGACCGGGCGGAATTCCGGCTGCCCGGGGAGCGGGCAAGCGCCGTCACACAGCCGACGTTTCCGTCACTGAGGGTACGTCGGGTACGTCACTGGCTCGACGGAGATGGGCGGCCAGGAGTGCGGCGTGCGCGGCGCGGGCGGGAGCGAATACAGCGGCTCG (double strand) [frzS PCR] |  | binds | binds |  |
| GATTAGCACTACGCATGCCAACCCAGGTGCGCACTCCAAGCCCCCCAATTCTCAAGGCTTGGAACAATCCCCTCGGCGAGGATGGGTCCAGGGCTGACAAAATTCGGCAGTGACGCTGACGATAACTGTCGATCAGCCTACGCATCCGAAGCGCTCCCGGGCTCCAAGTCATCCGTCAGCCCATGCTTGGCCAACCGGTAGCGGAATGAACGGAACGAAAG (double strand) [pilA PCR] |  |  | binds |  |
| CTCGTTTACGAACTCGTCTGGTCCAAGTACCTCGGGAATGTCCTGGGGAACAGCGGCCAGGCGCATGCCGTGGTGCTCGCCACGTTCATGGGAGGGCAAGCGCTGGGCGCATTTGTCTTCGGGCGGACAGCCGACCGGGCAAAGAACCCCCTGGCCCTTTACGGCCTGCTGGAGCTGGGCGTGGGCCTGTACGCGCTGGTCTTC (double strand) [mrpA PCR] |  | binds | binds |  |
| GCGAAGCAGTCTGTCGGCTACTTGACCGTGCTTGCCAGT (double strand) [MXAN_5802 oligo] | binds |  |  |  |
| GCGGTTCACTGTGTTTGCTAAGGGACAATCAAGGCCGTG (double strand) [pkn8 (MXAN_1710) oligo] | binds |  |  |  |
| CCAGGGAACGTAGAAGTCTGGCAGTTCGAATGGCTGCTTGTTTTTCGCCGTACTCATGGACGCCCCTCGTTGAACTCAGGGGGGCGTTATAGTTAGGCGCTGAACACTTATCCAAGTGTTTCTTGCATAAAAGATTCTCTGGAGAAGTCGCGATTTGCCTGCTGGCGCACGGATTTAGCTCCATCCGTGCGCCGTATTGCTC (double strand) [MXAN_6247 PCR] |  | binds | binds |  |
| GTTCATCGGGTCTGTCACATAGGCGACACCCTGCTCCGC (double strand) [MXAN_4360 oligo] | binds |  |  |  |
| GTACCAACTCGCGCACGTCGGGTGCGGGCAGTCCGTAGCGCTGGCCGTTCAGGGTGAACAGCAGCACCTCCGTGGGTGCGGGGGTCATGTCCTGGGACATAAGACGTGGGCGTGGCCACTGTCGAACATTGATGTCGGCCCGCGGTCGCGGTGTCCACCAGTCCTCAGTGGAGGCAGGAGGAGGGGCCCATGGTTCGGGGGGAACACGACAGGTGCTCGCTGTGC (double strand) [cheW6a PCR] |  | binds | binds |  |
| GGCCGACATCAATGTTCGACAGTGGCCACGCCCACGTCT (double strand) [MXAN_6947 oligo] | binds |  |  |  |
| AAACCTGGAAATGTTCACTGGTTGTCGAAGAGAAAAGGC (double strand) [bsgA (MXAN_3993) oligo] | binds |  |  |  |
| GTCTTCCTTGTTGATGAGCCCCGGAGGGGCCATCGCGGTGGGCATAGCGCTCGCAGCGGAGCCCTTCTTCTTCTCATCGGACATGAAATTCAGCCTTTTCTCTTCGACAACCAGTGAACATTTCCAGGTTTTCTGCGGCGGATGAACCAACGTAACAACCAAAACGGACATGGCAAACGCAGTGTGCGTTTTTCCGCCCCCCGTCACCTCTCCAGGGTTCCTCGGAAGTC (double strand) [bsgA PCR] |  | binds |  | binding result ([1]; 1 uM, mainly one protein bound, probe letters rebuilt from the primers and the genome): binds |
| GTGGGCATCCACGAAGCGCGCCCCGGACTGGTGCGCCCCCTGCTGTCGTGCACGCGGGAGGAGGTGGTGGCCTTCCTGGCGGAGCAGGGTGTCGCCTATGTGACAGACCCGATGAACACCGACCCTGTCCACTTCCGGACGCGCGTTCGCCTTGGAGTGCTACCCGCCCTGTCGCGCGCCGCTGGCTTCGCGGTGGAGG (double strand) [MXAN_4360 PCR] |  | binds | binds |  |
| CGAGCTCCTGTGAACCGAAGTCATGCTGCTGGTAGGAGCCCGCTGGGTCTGCCCAGACCTCGCCAATGAGGCGCTGGTCCATTAATTGCTCAACGCAACAACTTGCGAAGCAGTCTGTCGGCTACTTGACCGTGCTTGCCAGTGAATGAGAAGTGACGCCTGCGTGCTGACCGTAATGGGACAGGCGGGGACCATGTATATGAGGTGGAAGAAGC (double strand) [MXAN_5802 PCR] |  | binds |  | binding result ([1]; 1 uM, 3 complexes, probe letters rebuilt from the primers and the genome): binds |
| CAGAGGCCCCTTGTCCACTCATCAACAGAGCAAGCCCCC (double strand) [MXAN_6500 oligo] | binds |  |  |  |
| GGATTTGCCTTTGCACCTCCAGAACCACCAGTGGGTGAAACAATGTCAACGGGAGTCCTTCGCCACGGCCTTGATTGTCCCTTAGCAAACACAGTGAACCGCACAGCGACAAGGCAGGAATTCGCCCACGCTGGACTCACGGCACGTCGGAAGCATCTCTTGGGAATCAAGAATTGAGTGAGGTCCATCGCCCTGCAATCGATGGCAAAGAG (double strand) [pkn8 PCR] |  | binds |  | binding result ([1]; 1 uM, one protein bound, probe letters rebuilt from the primers and the genome): binds |
| GACGCCCGGGCGTGTCCGGCTCCGGACAGCGATGACGAA (double strand) [fruA (MXAN_3117) oligo] | binds |  |  |  |
| CACTTGGATAAGTGTTCAGCGCCTAACTATAACGCCCCC (double strand) [MXAN_6247 oligo] | binds |  |  |  |

Construct, isoform or probe ends are uncertain for at least one entry. For some of these results: At least one verdict was read from the data and is not stated in words by the source. For some of these results: Protein sequences can lack the tags named with them.
